Experimental data published in paper PMC3031242, “A novel neuron-enriched protein SDIM1 is down regulated in Alzheimer's brains and attenuates cell death induced by DNAJB4 over-expression in neuro-progenitor cells” (Molecular Neurodegeneration, 2011).
Positions count from the first letter of the chain named. These are yes or no findings as the source states them, for the method shown. For part of these data: In cells and extracts the contact can be indirect. Some binding calls cover weakened binding; strength is not graded here. Sequences can lack the tags named with a protein.

The chains behind the UniProt entries cited, without tags or fusion partners.
UniProt Q9UDY4: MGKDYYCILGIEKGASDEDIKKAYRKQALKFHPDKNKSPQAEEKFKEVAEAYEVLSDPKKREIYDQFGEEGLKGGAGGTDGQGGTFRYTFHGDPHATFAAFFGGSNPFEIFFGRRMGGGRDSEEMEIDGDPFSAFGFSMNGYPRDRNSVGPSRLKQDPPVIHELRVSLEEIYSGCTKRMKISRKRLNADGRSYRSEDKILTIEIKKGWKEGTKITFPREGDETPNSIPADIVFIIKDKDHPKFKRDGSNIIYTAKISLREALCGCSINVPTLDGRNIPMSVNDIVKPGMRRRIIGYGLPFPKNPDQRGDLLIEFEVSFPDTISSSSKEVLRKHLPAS

Key:
[1] = target: SDIM1-EGFP (EGFP-tagged SDIM1, from pSDIM1-EGFP) (human) (UniProt Q6ZPB5); assay: dimer-sized band on SDS-PAGE and Western blot; total cellular proteins from pSDIM1-EGFP transfected HEK-293 cells, anti-EGFP blot (Figure 3D middle panel, lane 2)
[2] = target: flag-tagged DNAJB4 (pCMV-DNAJB4-Tag1) (human) (UniProt Q9UDY4); assay: co-IP; HEK-293 cells co-transfected with flag-tagged DNAJB4 and EGFP-tagged SDIM1; total cellular proteins immunoprecipitated with anti-flag antibody; Western blot with anti-flag, anti-SDIM1 or anti-EGFP
[3] = target: T1, GST-SDIM1 fusion protein (human) (UniProt Q6ZPB5); assay: co-IP; purified GST-SDIM1 mixed with cellular proteins from HEK-293 cells transfected with pEGFP-N1 or pSDIM1-EGFP; immunoprecipitated with anti-GST antibody; Western blot with anti-GST, anti-EGFP and anti-SDIM1; only the target purified
T1 sequence: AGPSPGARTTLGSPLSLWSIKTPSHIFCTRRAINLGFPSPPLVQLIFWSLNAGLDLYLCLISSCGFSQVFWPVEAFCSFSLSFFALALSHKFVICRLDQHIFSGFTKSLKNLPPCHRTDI

Measured: binding

B1: SDIM1-EGFP (EGFP-tagged SDIM1, from pSDIM1-EGFP) (protein, UniProt Q6ZPB5 27-146)
chain: T1 sequence with A1C
binds: all assays above
